Some of the results follow.
Experiments:
Assay in all cases: glycan array binding signal (z-score within array); higher = stronger binding
Settings in all cases: glycan notation: IUPAC condensed, linker removed
[1] = molecular target: Fuc(a1-2)Gal(b1-4)GlcNAc(b1-3)Gal(b1-4)GlcNAc(b1-2)Man(a1-3)[Fuc(a1-2)Gal(b1-4)GlcNAc(b1-3)Gal(b1-4)GlcNAc(b1-2)Man(a1-6)]Man(b1-4)GlcNAc(b1-4)GlcNAc
In short: (§1)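 Columns mapping to the same glycan were averaged after glycan names were converted to IUPAC-condensed notation. The data come from 3228 arrays in the Consortium for Functional Glycomics database, limited to those with an available protein sequence. Binding is reported as a within-array Z-score averaged across arrays of one protein sequence and across linkers.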

[2] = molecular target: Fuc(a1-2)Gal(b1-4)GlcNAc(b1-3)Gal(b1-4)GlcNAc(b1-3)Gal(b1-4)GlcNAc
In short: as §1

[3] = molecular target: Fuc(a1-2)Gal(b1-4)GlcNAc(b1-3)GalNAc
In short: as §1

[4] = molecular target: Fuc(a1-2)Gal(b1-4)GlcNAc(b1-3)[Fuc(a1-2)Gal(b1-4)GlcNAc(b1-6)]GalNAc
In short: as §1

[5] = molecular target: Fuc(a1-2)Gal(b1-4)GlcNAc(b1-3)[Fuc(a1-3)[Gal(b1-4)]GlcNAc(b1-6)]Gal(b1-4)Glc
In short: as §1

[6] = molecular target: Fuc(a1-2)Gal(b1-4)GlcNAc(b1-6)GalNAc
In short: as §1

[7] = molecular target: Fuc(a1-2)Gal(b1-4)GlcNAc6S
In short: as §1

[8] = molecular target: Fuc(a1-2)Gal(b1-4)[Fuc(a1-3)]GlcNAc
In short: as §1

[9] = molecular target: Fuc(a1-2)Gal(b1-4)[Fuc(a1-3)]GlcNAc(b1-2)Man(a1-3)[Fuc(a1-2)Gal(b1-4)[Fuc(a1-3)]GlcNAc(b1-2)Man(a1-6)]Man(b1-4)GlcNAc(b1-4)[Fuc(a1-6)]GlcNAc
In short: as §1

[10] = molecular target: Fuc(a1-2)Gal(b1-4)[Fuc(a1-3)]GlcNAc(b1-2)[Fuc(a1-2)Gal(b1-4)[Fuc(a1-3)]GlcNAc(b1-4)]Man(a1-3)[Fuc(a1-2)Gal(b1-4)[Fuc(a1-3)]GlcNAc(b1-2)Man(a1-6)]Man(b1-4)GlcNAc(b1-4)GlcNAc
In short: as §1

[11] = molecular target: Fuc(a1-2)Gal(b1-4)[Fuc(a1-3)]GlcNAc(b1-3)Gal(b1-4)[Fuc(a1-3)]GlcNAc
In short: as §1

[12] = molecular target: Fuc(a1-2)Gal(b1-4)[Fuc(a1-3)]GlcNAc(b1-3)Gal(b1-4)[Fuc(a1-3)]GlcNAc(b1-3)Gal(b1-4)[Fuc(a1-3)]GlcNAc
In short: as §1

[13] = molecular target: Fuc(a1-2)Gal(b1-4)[Fuc(a1-3)]GlcNAc(b1-3)GalNAc
In short: as §1

[14] = molecular target: Fuc(a1-2)Gal(b1-4)[Fuc(a1-3)]GlcNAc(b1-3)[Neu5Ac(a2-6)Gal(b1-4)GlcNAc(b1-6)]Gal(b1-4)Glc
In short: as §1

[15] = molecular target: Fuc(a1-2)Gal3S(b1-4)GlcNAc
In short: as §1

[16] = molecular target: Fuc(a1-2)Gal6S(b1-3)GlcNAc
In short: as §1

[17] = molecular target: Fuc(a1-2)Gal6S(b1-3)GlcNAc6S
In short: as §1

Fuc(a1-2)Gal6S(b1-4)Glc = molecular target: Fuc(a1-2)Gal6S(b1-4)Glc
In short: as §1

[18] = molecular target: Fuc(a1-2)Gal6S(b1-4)Glc6S
In short: as §1

Fuc(a1-2)[Gal(a1-3)]Gal = molecular target: Fuc(a1-2)[Gal(a1-3)]Gal
In short: as §1

[19] = molecular target: Fuc(a1-2)[Gal(a1-3)]Gal(b1-3)GalNAc
In short: as §1

[20] = molecular target: Fuc(a1-2)[Gal(a1-3)]Gal(b1-3)GalNAc(b1-3)Gal(a1-4)Gal(b1-4)Glc
In short: as §1

[21] = molecular target: Fuc(a1-2)[Gal(a1-3)]Gal(b1-3)GlcNAc
In short: as §1

[22] = molecular target: Fuc(a1-2)[Gal(a1-3)]Gal(b1-3)GlcNAc(b1-2)Man(a1-3)[Fuc(a1-2)[Gal(a1-3)]Gal(b1-3)GlcNAc(b1-2)Man(a1-6)]Man(b1-4)GlcNAc(b1-4)GlcNAc
In short: as §1

[23] = molecular target: Fuc(a1-2)[Gal(a1-3)]Gal(b1-3)GlcNAc(b1-2)Man(a1-3)[Fuc(a1-2)[Gal(a1-3)]Gal(b1-3)GlcNAc(b1-2)Man(a1-6)]Man(b1-4)GlcNAc(b1-4)[Fuc(a1-6)]GlcNAc
In short: as §1

[24] = molecular target: Fuc(a1-2)[Gal(a1-3)]Gal(b1-3)GlcNAc(b1-3)GalNAc
In short: as §1

[25] = molecular target: Fuc(a1-2)[Gal(a1-3)]Gal(b1-3)GlcNAc(b1-6)GalNAc
In short: as §1

[26] = molecular target: Fuc(a1-2)[Gal(a1-3)]Gal(b1-4)Glc
In short: as §1

[27] = molecular target: Fuc(a1-2)[Gal(a1-3)]Gal(b1-4)GlcNAc
In short: as §1

[28] = molecular target: Fuc(a1-2)[Gal(a1-3)]Gal(b1-4)GlcNAc(b1-2)Man
In short: as §1

[29] = molecular target: Fuc(a1-2)[Gal(a1-3)]Gal(b1-4)GlcNAc(b1-2)Man(a1-3)[Fuc(a1-2)[Gal(a1-3)]Gal(b1-4)GlcNAc(b1-2)Man(a1-6)]Man(b1-4)GlcNAc(b1-4)GlcNAc
In short: as §1

[30] = molecular target: Fuc(a1-2)[Gal(a1-3)]Gal(b1-4)GlcNAc(b1-2)Man(a1-3)[Fuc(a1-2)[Gal(a1-3)]Gal(b1-4)GlcNAc(b1-2)Man(a1-6)]Man(b1-4)GlcNAc(b1-4)[Fuc(a1-6)]GlcNAc
In short: as §1

[31] = molecular target: Fuc(a1-2)[Gal(a1-3)]Gal(b1-4)GlcNAc(b1-3)GalNAc
In short: as §1

[32] = molecular target: Fuc(a1-2)[Gal(a1-3)]Gal(b1-4)GlcNAc(b1-3)[Fuc(a1-2)[Gal(a1-3)]Gal(b1-4)GlcNAc(b1-6)]GalNAc
In short: as §1

[33] = molecular target: Fuc(a1-2)[Gal(a1-3)]Gal(b1-4)GlcNAc(b1-6)GalNAc
In short: as §1

[34] = molecular target: Fuc(a1-2)[Gal(a1-3)]Gal(b1-4)[Fuc(a1-3)]Glc
In short: as §1

[35] = molecular target: Fuc(a1-2)[Gal(a1-3)]Gal(b1-4)[Fuc(a1-3)]GlcNAc
In short: as §1

B1: Erv46-EDTA (Saccharomyces cerevisiae), P39727 (protein)
chain: MKFLVNVALVFMVVYISYIYAAAPEHHHHHHDYDIPTTENLYFQGAMDSVVTRPQLVVDRDRHAKLELNMDVTFPSMPCDLVNLDIMDDSGEMQLDILDAGFTMSRLNSEGRPVGDATELHVGGNGDGTAPVNNDPNYCGPCYGAKDQSQNENLAQEEKVCCQDCDAVRSAYLEAGWAFFDGKNIEQCEREGYVSKINEHLNEGCRIKGSAQINRIQGNLHFAPGKPYQNAYGHFHDTSLYDKTSNLNFNHIINHLSFGKPIQSHSKLLGNDKRHGGAVVATSPLDGRQVFPDRNTHFHQFSYFAKIVPTRYEYLDNVVIETAQFSATFHSRPLAGGRDKDHPNTLHVRGGIPGMFVFFEMSPLKVINKEQ
- glycan array binding signal (z-score) [1]: 1.24
- glycan array binding signal (z-score) [2]: -0.781
- glycan array binding signal (z-score) [3]: -0.253
- glycan array binding signal (z-score) [4]: -0.087
- glycan array binding signal (z-score) [5]: 0.87
- glycan array binding signal (z-score) [6]: -0.785
- glycan array binding signal (z-score) [7]: -0.349
- glycan array binding signal (z-score) [8]: 0.104
- glycan array binding signal (z-score) [9]: 2.29
- glycan array binding signal (z-score) [10]: 2.34
- glycan array binding signal (z-score) [11]: 0.035
- glycan array binding signal (z-score) [12]: -0.775
- glycan array binding signal (z-score) [13]: 2.13
- glycan array binding signal (z-score) [14]: -0.485
- glycan array binding signal (z-score) [15]: -0.212
- glycan array binding signal (z-score) [16]: -0.892
- glycan array binding signal (z-score) [17]: 0.837
- glycan array binding signal (z-score) (Fuc(a1-2)Gal6S(b1-4)Glc): 0.218
- glycan array binding signal (z-score) [18]: 0.075
- glycan array binding signal (z-score) (Fuc(a1-2)[Gal(a1-3)]Gal): -0.681
- glycan array binding signal (z-score) [19]: 0.059
- glycan array binding signal (z-score) [20]: 0.235
- glycan array binding signal (z-score) [21]: -0.131
- glycan array binding signal (z-score) [22]: 0.041
- glycan array binding signal (z-score) [23]: -0.237
- glycan array binding signal (z-score) [24]: 0.419
- glycan array binding signal (z-score) [25]: -0.095
- glycan array binding signal (z-score) [26]: -0.255
- glycan array binding signal (z-score) [27]: -0.476
- glycan array binding signal (z-score) [28]: -0.677
- glycan array binding signal (z-score) [29]: -0.325
- glycan array binding signal (z-score) [30]: -0.448
- glycan array binding signal (z-score) [31]: -0.658
- glycan array binding signal (z-score) [32]: -0.131
- glycan array binding signal (z-score) [33]: -0.865
- glycan array binding signal (z-score) [34]: 0.069
- glycan array binding signal (z-score) [35]: -0.508

— the supplement of paper PMC8728848
